# Laboratory results reported in the supplement of paper PMC8728848.
# The list shows a part of the results.
# Legend:
# Experiment in all cases: glycan array binding signal (z-score within array); higher = stronger binding
# Conditions in all cases: glycan notation: IUPAC condensed, linker removed
# [1] = target: Fuc(a1-2)Gal(b1-4)GlcNAc(b1-3)Gal(b1-4)GlcNAc(b1-3)Gal(b1-4)GlcNAc
# How it was run: (§1)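 Negative Z-scores can be read as non-binding. The Z-score is calculated within each array and then averaged across arrays of one protein sequence at different concentrations or buffers and across linkers. Arrays, 3228 in all, were curated from the Consortium for Functional Glycomics database and kept only where the protein sequence was available.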
# [2] = target: Fuc(a1-2)Gal(b1-4)GlcNAc(b1-3)GalNAc
# How it was run: as §1
# [3] = target: Fuc(a1-2)Gal(b1-4)GlcNAc(b1-3)[Fuc(a1-2)Gal(b1-4)GlcNAc(b1-6)]GalNAc
# How it was run: as §1
# [4] = target: Fuc(a1-2)Gal(b1-4)GlcNAc(b1-3)[Fuc(a1-3)[Gal(b1-4)]GlcNAc(b1-6)]Gal(b1-4)Glc
# How it was run: as §1
# [5] = target: Fuc(a1-2)Gal(b1-4)GlcNAc(b1-6)GalNAc
# How it was run: as §1
# [6] = target: Fuc(a1-2)Gal(b1-4)GlcNAc6S
# How it was run: as §1
# [7] = target: Fuc(a1-2)Gal(b1-4)[Fuc(a1-3)]GlcNAc
# How it was run: as §1
# [8] = target: Fuc(a1-2)Gal(b1-4)[Fuc(a1-3)]GlcNAc(b1-2)Man(a1-3)[Fuc(a1-2)Gal(b1-4)[Fuc(a1-3)]GlcNAc(b1-2)Man(a1-6)]Man(b1-4)GlcNAc(b1-4)[Fuc(a1-6)]GlcNAc
# How it was run: as §1
# [9] = target: Fuc(a1-2)Gal(b1-4)[Fuc(a1-3)]GlcNAc(b1-2)[Fuc(a1-2)Gal(b1-4)[Fuc(a1-3)]GlcNAc(b1-4)]Man(a1-3)[Fuc(a1-2)Gal(b1-4)[Fuc(a1-3)]GlcNAc(b1-2)Man(a1-6)]Man(b1-4)GlcNAc(b1-4)GlcNAc
# How it was run: as §1
# [10] = target: Fuc(a1-2)Gal(b1-4)[Fuc(a1-3)]GlcNAc(b1-3)Gal(b1-4)[Fuc(a1-3)]GlcNAc
# How it was run: as §1
# [11] = target: Fuc(a1-2)Gal(b1-4)[Fuc(a1-3)]GlcNAc(b1-3)Gal(b1-4)[Fuc(a1-3)]GlcNAc(b1-3)Gal(b1-4)[Fuc(a1-3)]GlcNAc
# How it was run: as §1
# [12] = target: Fuc(a1-2)Gal(b1-4)[Fuc(a1-3)]GlcNAc(b1-3)GalNAc
# How it was run: as §1
# [13] = target: Fuc(a1-2)Gal(b1-4)[Fuc(a1-3)]GlcNAc(b1-3)[Neu5Ac(a2-6)Gal(b1-4)GlcNAc(b1-6)]Gal(b1-4)Glc
# How it was run: as §1
# [14] = target: Fuc(a1-2)Gal3S(b1-4)GlcNAc
# How it was run: as §1
# [15] = target: Fuc(a1-2)Gal6S(b1-3)GlcNAc
# How it was run: as §1
# [16] = target: Fuc(a1-2)Gal6S(b1-3)GlcNAc6S
# How it was run: as §1
# [17] = target: Fuc(a1-2)Gal6S(b1-4)Glc
# How it was run: as §1
# [18] = target: Fuc(a1-2)Gal6S(b1-4)Glc6S
# How it was run: as §1
# [19] = target: Fuc(a1-2)[Gal(a1-3)]Gal
# How it was run: as §1
# [20] = target: Fuc(a1-2)[Gal(a1-3)]Gal(b1-3)GalNAc
# How it was run: as §1
# [21] = target: Fuc(a1-2)[Gal(a1-3)]Gal(b1-3)GalNAc(b1-3)Gal(a1-4)Gal(b1-4)Glc
# How it was run: as §1
# [22] = target: Fuc(a1-2)[Gal(a1-3)]Gal(b1-3)GlcNAc
# How it was run: as §1
# [23] = target: Fuc(a1-2)[Gal(a1-3)]Gal(b1-3)GlcNAc(b1-2)Man(a1-3)[Fuc(a1-2)[Gal(a1-3)]Gal(b1-3)GlcNAc(b1-2)Man(a1-6)]Man(b1-4)GlcNAc(b1-4)GlcNAc
# How it was run: as §1
# [24] = target: Fuc(a1-2)[Gal(a1-3)]Gal(b1-3)GlcNAc(b1-2)Man(a1-3)[Fuc(a1-2)[Gal(a1-3)]Gal(b1-3)GlcNAc(b1-2)Man(a1-6)]Man(b1-4)GlcNAc(b1-4)[Fuc(a1-6)]GlcNAc
# How it was run: as §1
# [25] = target: Fuc(a1-2)[Gal(a1-3)]Gal(b1-3)GlcNAc(b1-3)GalNAc
# How it was run: as §1
# [26] = target: Fuc(a1-2)[Gal(a1-3)]Gal(b1-3)GlcNAc(b1-6)GalNAc
# How it was run: as §1
# [27] = target: Fuc(a1-2)[Gal(a1-3)]Gal(b1-4)Glc
# How it was run: as §1
# [28] = target: Fuc(a1-2)[Gal(a1-3)]Gal(b1-4)GlcNAc
# How it was run: as §1
# [29] = target: Fuc(a1-2)[Gal(a1-3)]Gal(b1-4)GlcNAc(b1-2)Man
# How it was run: as §1
# [30] = target: Fuc(a1-2)[Gal(a1-3)]Gal(b1-4)GlcNAc(b1-2)Man(a1-3)[Fuc(a1-2)[Gal(a1-3)]Gal(b1-4)GlcNAc(b1-2)Man(a1-6)]Man(b1-4)GlcNAc(b1-4)GlcNAc
# How it was run: as §1
binder,measurement,setting,value
Nc3LysM-2 (protein) AHVLQARQSVSCDFATAANTGDTCASFAAAWGITEAAFAKLNPGVSCPGNLIAGSEYCVIGTVSTGAPTTTKAATTSTTPPTTTTTTKATTLSTSTTSVSPTGPSPQMPSITSTCNKFYQVQSGDGCWSIEQAQGVSASDFMAWNKAVDAQCDNLWLGYYVCVGVKGGSSPPPTTTTKPASSSAPTPQMPNTVSNCKKFHKVVSGDGCWAIEQAAGISASDFAKWNPYVDAACDNLWLGYYVCIGV,glycan array binding signal (z-score),[1],0.908
same,glycan array binding signal (z-score),[2],-0.881
same,glycan array binding signal (z-score),[3],-0.441
same,glycan array binding signal (z-score),[4],0.1
same,glycan array binding signal (z-score),[5],-1.6
same,glycan array binding signal (z-score),[6],1.84
same,glycan array binding signal (z-score),[7],-0.85
same,glycan array binding signal (z-score),[8],0.791
same,glycan array binding signal (z-score),[9],1.01
same,glycan array binding signal (z-score),[10],-0.75
same,glycan array binding signal (z-score),[11],-0.114
same,glycan array binding signal (z-score),[12],0.948
same,glycan array binding signal (z-score),[13],-0.656
same,glycan array binding signal (z-score),[14],1.14
same,glycan array binding signal (z-score),[15],-0.506
same,glycan array binding signal (z-score),[16],0.679
same,glycan array binding signal (z-score),[17],-0.379
same,glycan array binding signal (z-score),[18],0.948
same,glycan array binding signal (z-score),[19],-0.694
same,glycan array binding signal (z-score),[20],0.293
same,glycan array binding signal (z-score),[21],-0.339
same,glycan array binding signal (z-score),[22],-0.397
same,glycan array binding signal (z-score),[23],0.135
same,glycan array binding signal (z-score),[24],-0.813
same,glycan array binding signal (z-score),[25],-0.745
same,glycan array binding signal (z-score),[26],-0.813
same,glycan array binding signal (z-score),[27],0.96
same,glycan array binding signal (z-score),[28],1.22
same,glycan array binding signal (z-score),[29],0.033
same,glycan array binding signal (z-score),[30],2.78

# Two entries drawn at random from those above:
binder,measurement,setting,value
Nc3LysM-2 (protein) AHVLQARQSVSCDFATAANTGDTCASFAAAWGITEAAFAKLNPGVSCPGNLIAGSEYCVIGTVSTGAPTTTKAATTSTTPPTTTTTTKATTLSTSTTSVSPTGPSPQMPSITSTCNKFYQVQSGDGCWSIEQAQGVSASDFMAWNKAVDAQCDNLWLGYYVCVGVKGGSSPPPTTTTKPASSSAPTPQMPNTVSNCKKFHKVVSGDGCWAIEQAAGISASDFAKWNPYVDAACDNLWLGYYVCIGV,glycan array binding signal (z-score),[13],-0.656
same,glycan array binding signal (z-score),[22],-0.397
